Test results: the supplement of paper PMC10849652
The other results are listed elsewhere or left out.

Protein sequences, listed by entry. Tags and fused reporters are not part of them. Lines headed by an entry give the natural chain unless they say otherwise; changes in a name come on top.
UniProt Q14807: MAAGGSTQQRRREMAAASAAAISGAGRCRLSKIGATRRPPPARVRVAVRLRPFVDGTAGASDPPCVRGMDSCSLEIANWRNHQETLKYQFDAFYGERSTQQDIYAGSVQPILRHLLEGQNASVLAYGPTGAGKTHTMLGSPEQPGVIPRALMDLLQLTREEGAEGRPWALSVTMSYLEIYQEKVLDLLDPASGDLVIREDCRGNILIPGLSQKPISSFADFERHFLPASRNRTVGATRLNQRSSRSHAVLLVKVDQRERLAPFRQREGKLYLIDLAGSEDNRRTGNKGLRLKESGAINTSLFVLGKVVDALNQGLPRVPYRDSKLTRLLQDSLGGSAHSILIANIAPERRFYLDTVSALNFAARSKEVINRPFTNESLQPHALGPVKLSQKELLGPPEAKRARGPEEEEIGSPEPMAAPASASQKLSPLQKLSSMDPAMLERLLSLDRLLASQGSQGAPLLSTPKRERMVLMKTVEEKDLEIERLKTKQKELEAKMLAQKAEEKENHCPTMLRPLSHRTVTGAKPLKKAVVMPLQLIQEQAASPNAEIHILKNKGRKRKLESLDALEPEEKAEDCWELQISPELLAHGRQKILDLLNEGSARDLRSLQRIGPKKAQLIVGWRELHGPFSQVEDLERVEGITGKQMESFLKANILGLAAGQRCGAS
UniProt Q13351: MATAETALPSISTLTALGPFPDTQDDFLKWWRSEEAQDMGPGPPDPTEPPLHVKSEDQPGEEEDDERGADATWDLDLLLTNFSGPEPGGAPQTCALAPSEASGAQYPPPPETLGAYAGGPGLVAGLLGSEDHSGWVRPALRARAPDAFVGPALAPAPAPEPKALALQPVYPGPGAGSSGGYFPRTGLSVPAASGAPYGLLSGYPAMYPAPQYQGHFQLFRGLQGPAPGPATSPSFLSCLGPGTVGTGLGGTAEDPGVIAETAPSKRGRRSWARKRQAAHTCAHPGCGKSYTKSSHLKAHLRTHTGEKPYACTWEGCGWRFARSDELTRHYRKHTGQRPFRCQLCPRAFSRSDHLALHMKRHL
UniProt Q9BVG8: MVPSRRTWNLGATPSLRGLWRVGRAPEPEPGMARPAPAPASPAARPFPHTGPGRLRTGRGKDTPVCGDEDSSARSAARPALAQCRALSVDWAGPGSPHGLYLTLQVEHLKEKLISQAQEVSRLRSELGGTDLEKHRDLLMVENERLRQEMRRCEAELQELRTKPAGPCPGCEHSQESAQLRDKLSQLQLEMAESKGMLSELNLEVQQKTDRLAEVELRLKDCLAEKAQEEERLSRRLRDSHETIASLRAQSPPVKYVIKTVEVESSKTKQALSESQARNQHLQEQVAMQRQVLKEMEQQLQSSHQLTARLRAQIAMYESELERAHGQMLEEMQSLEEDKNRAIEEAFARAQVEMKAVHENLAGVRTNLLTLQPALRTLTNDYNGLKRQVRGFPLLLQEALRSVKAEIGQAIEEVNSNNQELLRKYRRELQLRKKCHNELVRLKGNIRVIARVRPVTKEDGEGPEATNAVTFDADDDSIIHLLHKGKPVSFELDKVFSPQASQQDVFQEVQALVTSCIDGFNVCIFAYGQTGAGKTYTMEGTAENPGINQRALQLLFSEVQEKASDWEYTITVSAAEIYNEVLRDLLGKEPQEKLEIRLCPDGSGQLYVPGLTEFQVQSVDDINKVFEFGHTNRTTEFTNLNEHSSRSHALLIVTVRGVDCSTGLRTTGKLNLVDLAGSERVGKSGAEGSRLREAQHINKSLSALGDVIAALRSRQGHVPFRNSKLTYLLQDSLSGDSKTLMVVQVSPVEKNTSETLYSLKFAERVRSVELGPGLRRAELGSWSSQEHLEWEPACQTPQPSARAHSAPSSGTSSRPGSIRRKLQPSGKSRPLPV
UniProt Q92845: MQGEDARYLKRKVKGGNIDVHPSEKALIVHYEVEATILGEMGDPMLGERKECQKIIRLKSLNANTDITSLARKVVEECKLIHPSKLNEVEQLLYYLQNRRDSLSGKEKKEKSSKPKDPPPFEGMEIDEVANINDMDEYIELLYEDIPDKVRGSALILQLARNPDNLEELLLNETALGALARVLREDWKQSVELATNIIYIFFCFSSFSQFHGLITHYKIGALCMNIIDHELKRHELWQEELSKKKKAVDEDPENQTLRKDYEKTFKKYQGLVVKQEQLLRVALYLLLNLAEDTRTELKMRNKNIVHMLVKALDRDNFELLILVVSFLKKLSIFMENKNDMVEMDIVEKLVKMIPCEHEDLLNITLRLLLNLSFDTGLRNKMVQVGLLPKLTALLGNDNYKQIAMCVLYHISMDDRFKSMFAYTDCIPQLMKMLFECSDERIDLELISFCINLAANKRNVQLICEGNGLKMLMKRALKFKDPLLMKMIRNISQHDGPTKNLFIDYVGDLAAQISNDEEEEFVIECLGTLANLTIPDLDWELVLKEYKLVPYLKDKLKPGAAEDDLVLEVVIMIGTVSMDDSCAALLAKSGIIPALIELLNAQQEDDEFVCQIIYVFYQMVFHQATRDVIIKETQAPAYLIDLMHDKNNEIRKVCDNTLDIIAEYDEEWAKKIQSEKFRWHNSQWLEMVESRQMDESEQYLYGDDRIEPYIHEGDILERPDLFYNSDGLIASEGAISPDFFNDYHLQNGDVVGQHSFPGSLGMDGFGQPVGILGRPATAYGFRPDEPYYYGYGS
UniProt P07288: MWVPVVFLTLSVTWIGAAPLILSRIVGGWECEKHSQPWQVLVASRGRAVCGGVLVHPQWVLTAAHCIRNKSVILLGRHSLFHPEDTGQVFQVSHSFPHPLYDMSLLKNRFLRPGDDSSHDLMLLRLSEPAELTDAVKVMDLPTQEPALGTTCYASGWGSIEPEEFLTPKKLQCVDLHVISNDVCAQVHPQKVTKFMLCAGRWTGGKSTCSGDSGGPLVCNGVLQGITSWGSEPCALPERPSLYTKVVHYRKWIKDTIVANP
UniProt Q07866: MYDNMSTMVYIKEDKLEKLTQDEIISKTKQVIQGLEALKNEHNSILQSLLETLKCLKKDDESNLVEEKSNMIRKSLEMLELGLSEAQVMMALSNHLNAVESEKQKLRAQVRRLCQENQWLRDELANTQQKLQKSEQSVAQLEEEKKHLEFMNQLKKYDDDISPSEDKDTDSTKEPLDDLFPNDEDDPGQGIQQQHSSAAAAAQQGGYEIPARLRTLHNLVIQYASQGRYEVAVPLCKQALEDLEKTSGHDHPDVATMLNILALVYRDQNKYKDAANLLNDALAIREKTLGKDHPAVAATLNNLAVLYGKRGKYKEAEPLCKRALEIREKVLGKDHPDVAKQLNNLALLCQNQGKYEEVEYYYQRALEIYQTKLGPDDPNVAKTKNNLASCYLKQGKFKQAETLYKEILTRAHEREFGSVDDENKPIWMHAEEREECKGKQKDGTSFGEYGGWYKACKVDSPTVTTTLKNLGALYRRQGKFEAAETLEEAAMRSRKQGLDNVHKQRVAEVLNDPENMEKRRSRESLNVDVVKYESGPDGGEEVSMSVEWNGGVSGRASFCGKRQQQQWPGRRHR
UniProt Q9UMN6, whole entry, looked up: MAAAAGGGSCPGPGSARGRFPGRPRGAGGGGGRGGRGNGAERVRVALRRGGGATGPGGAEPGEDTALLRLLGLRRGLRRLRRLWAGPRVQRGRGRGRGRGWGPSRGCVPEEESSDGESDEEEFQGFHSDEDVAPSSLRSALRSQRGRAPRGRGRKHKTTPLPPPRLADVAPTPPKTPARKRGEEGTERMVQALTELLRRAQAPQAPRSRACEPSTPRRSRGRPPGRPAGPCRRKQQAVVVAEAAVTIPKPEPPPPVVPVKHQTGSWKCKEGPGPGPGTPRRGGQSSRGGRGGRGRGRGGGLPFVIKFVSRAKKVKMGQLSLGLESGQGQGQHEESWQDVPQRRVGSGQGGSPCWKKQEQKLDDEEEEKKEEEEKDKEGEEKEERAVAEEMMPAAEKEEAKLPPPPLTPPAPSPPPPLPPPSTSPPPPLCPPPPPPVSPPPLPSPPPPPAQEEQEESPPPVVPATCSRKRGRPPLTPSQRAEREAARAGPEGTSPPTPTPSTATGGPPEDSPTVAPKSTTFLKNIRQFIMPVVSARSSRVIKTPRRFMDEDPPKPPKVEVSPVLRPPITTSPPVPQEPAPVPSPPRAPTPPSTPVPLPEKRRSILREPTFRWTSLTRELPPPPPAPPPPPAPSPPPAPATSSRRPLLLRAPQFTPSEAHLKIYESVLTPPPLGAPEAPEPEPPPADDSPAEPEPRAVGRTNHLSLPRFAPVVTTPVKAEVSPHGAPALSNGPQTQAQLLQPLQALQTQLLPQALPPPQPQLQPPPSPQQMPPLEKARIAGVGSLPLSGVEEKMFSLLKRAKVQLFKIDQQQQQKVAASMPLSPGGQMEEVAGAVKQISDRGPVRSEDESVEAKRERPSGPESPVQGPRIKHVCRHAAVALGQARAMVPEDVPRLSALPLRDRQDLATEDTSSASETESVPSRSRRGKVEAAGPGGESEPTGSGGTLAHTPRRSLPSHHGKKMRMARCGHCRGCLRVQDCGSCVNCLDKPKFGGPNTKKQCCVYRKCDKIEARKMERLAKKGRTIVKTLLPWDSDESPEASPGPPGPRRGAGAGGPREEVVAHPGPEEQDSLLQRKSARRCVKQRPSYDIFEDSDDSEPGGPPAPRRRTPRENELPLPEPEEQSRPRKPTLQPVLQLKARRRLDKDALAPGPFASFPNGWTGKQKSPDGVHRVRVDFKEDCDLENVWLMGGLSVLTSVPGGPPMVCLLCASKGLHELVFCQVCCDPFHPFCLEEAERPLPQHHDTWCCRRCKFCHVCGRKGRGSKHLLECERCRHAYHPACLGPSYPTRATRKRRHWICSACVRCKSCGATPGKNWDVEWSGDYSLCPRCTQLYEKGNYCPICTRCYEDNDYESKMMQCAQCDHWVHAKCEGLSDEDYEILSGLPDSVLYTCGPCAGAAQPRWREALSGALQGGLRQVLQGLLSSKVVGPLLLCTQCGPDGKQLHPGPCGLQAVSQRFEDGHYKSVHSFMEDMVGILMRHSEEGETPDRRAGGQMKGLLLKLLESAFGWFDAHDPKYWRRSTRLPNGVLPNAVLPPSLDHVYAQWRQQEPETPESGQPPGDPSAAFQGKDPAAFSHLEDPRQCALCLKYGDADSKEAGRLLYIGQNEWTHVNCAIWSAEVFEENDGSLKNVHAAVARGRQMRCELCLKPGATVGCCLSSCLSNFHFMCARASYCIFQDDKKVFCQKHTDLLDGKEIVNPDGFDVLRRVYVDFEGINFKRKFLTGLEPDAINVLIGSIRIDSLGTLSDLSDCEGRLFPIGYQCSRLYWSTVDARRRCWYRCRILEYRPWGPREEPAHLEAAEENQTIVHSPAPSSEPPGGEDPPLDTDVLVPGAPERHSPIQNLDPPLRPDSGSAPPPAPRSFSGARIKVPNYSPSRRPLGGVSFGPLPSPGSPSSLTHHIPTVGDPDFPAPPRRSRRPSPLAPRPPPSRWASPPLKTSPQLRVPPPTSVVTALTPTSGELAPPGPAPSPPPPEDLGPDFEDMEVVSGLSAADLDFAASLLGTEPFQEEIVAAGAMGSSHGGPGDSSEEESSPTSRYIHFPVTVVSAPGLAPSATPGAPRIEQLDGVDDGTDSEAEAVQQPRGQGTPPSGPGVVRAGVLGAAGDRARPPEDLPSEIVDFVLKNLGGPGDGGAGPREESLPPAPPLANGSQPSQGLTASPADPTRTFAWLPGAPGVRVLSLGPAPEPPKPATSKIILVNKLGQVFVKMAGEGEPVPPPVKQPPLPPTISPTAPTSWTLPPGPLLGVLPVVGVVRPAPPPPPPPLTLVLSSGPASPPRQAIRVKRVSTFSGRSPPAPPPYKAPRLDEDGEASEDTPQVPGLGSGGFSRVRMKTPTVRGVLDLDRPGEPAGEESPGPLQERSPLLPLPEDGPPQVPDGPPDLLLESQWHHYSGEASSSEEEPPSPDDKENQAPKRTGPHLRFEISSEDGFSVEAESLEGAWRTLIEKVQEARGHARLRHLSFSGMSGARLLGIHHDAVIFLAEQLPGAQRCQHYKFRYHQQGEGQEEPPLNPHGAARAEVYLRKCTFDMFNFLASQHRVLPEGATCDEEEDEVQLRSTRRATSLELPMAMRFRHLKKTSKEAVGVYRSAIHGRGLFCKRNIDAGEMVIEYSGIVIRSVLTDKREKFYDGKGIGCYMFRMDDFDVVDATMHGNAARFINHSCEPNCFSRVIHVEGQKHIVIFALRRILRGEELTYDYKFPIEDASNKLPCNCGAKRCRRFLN
UniProt Q969F8, whole entry, looked up: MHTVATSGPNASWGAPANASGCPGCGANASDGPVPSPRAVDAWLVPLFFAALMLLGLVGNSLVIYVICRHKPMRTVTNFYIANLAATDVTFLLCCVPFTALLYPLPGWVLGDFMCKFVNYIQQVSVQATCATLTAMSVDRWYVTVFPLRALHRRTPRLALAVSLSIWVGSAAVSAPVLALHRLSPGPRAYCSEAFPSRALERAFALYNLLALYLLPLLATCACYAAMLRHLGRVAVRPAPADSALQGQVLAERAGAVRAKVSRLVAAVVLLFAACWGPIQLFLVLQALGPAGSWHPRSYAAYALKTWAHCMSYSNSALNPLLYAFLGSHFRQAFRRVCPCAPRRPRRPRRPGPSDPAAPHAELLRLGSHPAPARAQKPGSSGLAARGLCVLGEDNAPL

Tests used:
Assay in all cases: log2 fold change, soluble protein after heating vs DMSO (PISA); higher = thermal stabilisation; K562 lysate, 10 uM; active = over 0.2 and 3.5 SD of the protein, either way, in both replicates (recomputed)
[1] = compound: CS(=O)(=O)CCNCc1ccc(-c2ccc3ncnc(Nc4ccc(OCc5cccc(F)c5)c(Cl)c4)c3c2)o1 [lapatinib]
Outline: (§1)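 Dounce homogenisation of K562 pellets in PBS pH 7.4 with 1 mM MgCl2 produced a crude extract, used at 1 mg/mL protein. Exposure to 10 μM compound lasted 30 min, and aliquots were then heated for 3 min across 48°C-58°C, pooled and brought to 0.5% NP-40 at 4°C. The supernatant after 21,000xg for 90 min was quantified by TMTpro 16plex LC-MS/MS with channel sums equalised. Duplicate values are given as log-two fold change in thermal stability relative to solvent controls.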

[2] = compound: CS(=O)(=O)N1CCN(Cc2cc3nc(-c4cccc5[nH]ncc45)nc(N4CCOCC4)c3s2)CC1 [pictilisib]
Outline: as §1

[3] = compound: C[C@@H](Oc1cc(-c2cnn(C3CCNCC3)c2)cnc1N)c1c(Cl)ccc(F)c1Cl [crizotinib]
Outline: as §1

[4] = compound: C[C@H](C1=CC=C(C=C1)C(=O)NC2=C3C=CNC3=NC=C2)N
Outline: as §1

[5] = compound: C[C@H](Nc1ncnc2nc[nH]c12)c1cc2cccc(Cl)c2c(=O)n1-c1ccccc1 [duvelisib]
Outline: as §1

[6] = compound: Cc1cc(Nc2cc(CN3CCOCC3)c3nc(C)c(Cc4ccc(Cl)cc4F)n3n2)n[nH]1 [gandotinib]
Outline: as §1

[7] = compound: Cc1cc(Nc2cc(N3CCN(C)CC3)nc(Sc3ccc(NC(=O)C4CC4)cc3)n2)n[nH]1 [tozasertib]
Outline: as §1

[8] = compound: Cc1ccc(-n2nc(C(C)(C)C)cc2NC(=O)Nc2ccc(OCCN3CCOCC3)c3ccccc23)cc1 [doramapimod]
Outline: as §1

[9] = compound: Cc1ccc(NC(=O)c2ccc(CN3CC[C@H](N(C)C)C3)c(C(F)(F)F)c2)cc1Nc1nccc(-c2cncnc2)n1 [bafetinib]
Outline: as §1

[10] = compound: Cc1cccc(CC(=O)N2CCc3c2ccc(-c2cn(C)c4ncnc(N)c24)c3F)n1
Outline: as §1

Measured: log2 fold change

KIF21B (UniProt O75037)
inactive: [1] -0.092 | [2] 0.102 | [3] -0.215 | [4] -0.441 | [5] -0.001 | [6] -0.203 | [7] -0.085 | [8] 0.146 | [9] -0.239 | [10] 0.029

KIF18B (UniProt Q86Y91)
inactive: [1] -0.024 | [3] -0.008 | [5] 0.068 | [7] -0.161 | [8] 0.077

KIF3A (UniProt Q9Y496)
inactive: [1] -0.12 | [2] 0.072 | [3] 0.088 | [4] 0.047 | [5] 0 | [6] -0.065 | [7] -0.006 | [8] 0.131 | [9] -0.027 | [10] 0.039

KRAS (UniProt P01116)
inactive: [1] 0.019 | [3] 0.017 | [4] -0.078 | [5] 0.001 | [6] 0.044 | [7] -0.013 | [8] 0.006 | [10] 0.145

KIF3B (UniProt O15066)
inactive: [1] -0.016 | [2] -0.087 | [3] -0.009 | [4] -0.257 | [6] 0.126 | [7] -0.099 | [8] -0.021 | [9] -0.12 | [10] 0.004

KIF22 (UniProt Q14807)
inactive: [1] -0.149 | [2] -0.07 | [3] -0.29 | [4] -0.201 | [5] -0.02 | [6] 0.238 | [7] -0.043 | [8] -0.009 | [9] -0.068 | [10] 0.33

KLF1 (UniProt Q13351)
inactive: [1] 0.026 | [2] 0.053 | [9] -0.066

KLHL12 isoform 2 (UniProt Q53G59)
inactive: [1] 0.023 | [2] 0.048 | [3] 0.016 | [5] 0.084 | [8] 0.003 | [9] -0.131

KXD1 (UniProt Q9BQD3)
inactive: [1] -0.033 | [2] 0.115 | [3] -0.031 | [4] 0.069 | [5] 0.079 | [6] 0.058 | [7] -0.014 | [8] -0.002 | [9] -0.079 | [10] -0.008

KLHL26 (UniProt Q53HC5)
inactive: [1] 0.026 | [3] -0.104 | [4] -0.229 | [5] 0.246 | [6] 0.033 | [8] 0.051 | [10] -0.164

KDM8 isoform 3 (UniProt Q8N371)
inactive: [1] -0.013 | [2] -0.032 | [3] -0.022 | [4] -0.04 | [5] -0.012 | [6] 0.034 | [7] -0.021 | [8] 0.006 | [9] -0.059 | [10] 0.039

KMT2A isoform 3 (UniProt Q03164)
inactive: [1] -0.07 | [2] -0.102 | [3] -0.033 | [4] 0.091 | [5] 0.013 | [6] 0.013 | [7] 0.148 | [8] 0.026 | [9] -0.41 | [10] 0.069

KLHDC10 (UniProt Q6PID8)
inactive: [2] -0.079 | [3] -0.029 | [4] -0.024 | [5] -0.002 | [6] 0 | [7] -0.1 | [8] 0.039 | [9] -0.101 | [10] 0.052

KIFC3 isoform 6 (UniProt Q9BVG8)
active: [4] -1.85
inactive: [2] -0.127 | [3] -0.21 | [5] 0.089 | [6] 0.111 | [7] -0.111 | [8] -0.034 | [9] -0.221 | [10] 0.296

KIFAP3 (UniProt Q92845)
inactive: [2] 0.054 | [3] -0.03 | [4] -0.019 | [5] -0.223 | [6] -0.113 | [7] -0.332 | [8] 0.114 | [9] 0.147 | [10] -0.071

KIFBP (UniProt Q96EK5)
inactive: [1] 0 | [2] -0.029 | [3] -0.007 | [4] -0.001 | [5] -0.005 | [6] -0.096 | [7] 0.005 | [8] -0.005 | [9] -0.02 | [10] 0.002

KLC2 (UniProt Q9H0B6)
inactive: [1] -0.012 | [2] -0.057 | [3] -0.047 | [4] 0.025 | [5] -0.031 | [6] -0.145 | [7] 0.012 | [8] 0.065 | [9] -0.043 | [10] 0.074

KMT2C isoform 3 (UniProt Q8NEZ4)
inactive: [1] -0.055 | [2] -0.084 | [3] 0.029 | [4] -0.058 | [5] -0.022 | [6] -0.112 | [7] 0.048 | [8] -0.117 | [9] -0.203 | [10] 0.042

Taken from the entries so far (four entries):
KLHDC10 (UniProt Q6PID8)
inactive: [2] -0.079 | [3] -0.029 | [4] -0.024 | [5] -0.002 | [6] 0 | [7] -0.1 | [8] 0.039 | [9] -0.101 | [10] 0.052

KIFC3 isoform 6 (UniProt Q9BVG8)
active: [4] -1.85
inactive: [2] -0.127 | [3] -0.21 | [5] 0.089 | [6] 0.111 | [7] -0.111 | [8] -0.034 | [9] -0.221 | [10] 0.296

KIFAP3 (UniProt Q92845)
inactive: [2] 0.054 | [3] -0.03 | [4] -0.019 | [5] -0.223 | [6] -0.113 | [7] -0.332 | [8] 0.114 | [9] 0.147 | [10] -0.071

KIFBP (UniProt Q96EK5)
inactive: [1] 0 | [2] -0.029 | [3] -0.007 | [4] -0.001 | [5] -0.005 | [6] -0.096 | [7] 0.005 | [8] -0.005 | [9] -0.02 | [10] 0.002

The list continues.

KDM4B (UniProt O94953)
inactive: [3] 0 | [4] 0.102 | [5] 0.153 | [6] 0.044 | [7] 0.115 | [8] 0.082 | [10] 0

LARGE2 (UniProt Q8N3Y3)
inactive: [4] 0.152 | [6] -0.159 | [10] 0.254

KREMEN1 isoform 2 (UniProt Q96MU8)
inactive: [3] 0.046 | [8] 0.15

KLF13 (UniProt Q9Y2Y9)
inactive: [3] 0.177 | [8] 0.049

KIZ (UniProt Q2M2Z5)
inactive: [2] -0.023 | [3] 0.014 | [4] -0.01 | [5] 0.023 | [6] 0.056 | [7] 0.061 | [8] 0.006 | [9] -0.009 | [10] -0.058

KLHL11 (UniProt Q9NVR0)
inactive: [2] -0.108 | [3] -0.023 | [4] -0.09 | [5] 0.061 | [6] 0.013 | [7] -0.047 | [8] -0.033 | [9] 0.008 | [10] 0.127

KIAA1549 (UniProt Q9HCM3)
inactive: [2] -0.16 | [9] -0.446

KDM5A (UniProt P29375)
inactive: [3] -0.069 | [4] 0.011 | [5] -0.11 | [6] -0.015 | [8] 0.01 | [10] 0.036

KLHDC2 (UniProt Q9Y2U9)
inactive: [3] -0.11 | [8] 0.012

KIAA1586 (UniProt Q9HCI6)
inactive: [2] -0.031 | [5] 0.047 | [9] 0.034

KRT13 (UniProt K7EMD9)
inactive: [2] 0.356 | [9] 0.285

LAMA5 (UniProt O15230)
inactive: [2] -0.329 | [3] -0.073 | [4] 0.039 | [5] -0.075 | [6] 0.013 | [7] -0.215 | [8] 0.04 | [9] 0.025 | [10] 0.066

KLK3 (UniProt P07288)
inactive: [5] 0.193

KIF16B isoform 2 (UniProt Q96L93)
inactive: [3] 0.005 | [4] -0.118 | [5] 0.05 | [6] -0.009 | [7] 0.024 | [8] -0.044 | [10] 0.223

KIAA0586 isoform 3 (UniProt Q9BVV6)
inactive: [3] -0.068 | [5] 0.356 | [8] -0.057

KIF26A (UniProt Q9ULI4)
inactive: [2] 0.039 | [3] 0.013 | [4] -0.065 | [5] -0.017 | [6] 0.003 | [7] 0.086 | [8] -0.002 | [9] -0.055 | [10] 0.002

LAPTM4B (UniProt Q86VI4)
inactive: [2] -0.015 | [4] -0.263 | [6] 0.171 | [9] -0.038 | [10] 0.217

KMT5A (UniProt Q9NQR1)
inactive: [4] 0.164 | [6] -0.187 | [10] -0.256

KDM4A (UniProt O75164)
inactive: [2] -0.043 | [3] 0.011 | [4] -0.06 | [5] -0.014 | [6] -0.015 | [7] 0.023 | [8] 0.016 | [9] -0.014 | [10] 0.056

L3MBTL2 (UniProt Q969R5)
inactive: [3] -0.034 | [4] 0.056 | [5] 0.123 | [6] -0.114 | [7] -0.109 | [8] -0.062 | [10] 0.184

KIF20A (UniProt O95235)
inactive: [2] -0.219 | [3] -0.119 | [4] -0.031 | [5] 0.008 | [6] 0.109 | [7] 0.041 | [8] 0.06 | [9] -0.223 | [10] 0.116

KLHL22 (UniProt Q53GT1)
inactive: [4] 0.065 | [5] 0.012 | [6] -0.109 | [7] -0.07 | [10] 0.031

KDM4C (UniProt Q9H3R0)
inactive: [2] -0.205 | [4] 0.054 | [5] -0.179 | [6] -0.015 | [9] 0.087 | [10] -0.155

KRI1 (UniProt Q8N9T8)
inactive: [2] -0.072 | [3] -0.057 | [4] 0.011 | [5] 0.036 | [6] -0.022 | [7] 0.014 | [8] 0.023 | [9] 0.009 | [10] 0.045

LAPTM4A (UniProt Q15012)
inactive: [5] 0.242

KLC1 isoform 10 (UniProt Q07866)
inactive: [2] -0.167 | [7] 0.016 | [9] 0.032

KIF2A isoform 2 (UniProt O00139)
inactive: [4] 0.192 | [6] -0.059 | [10] -0.059

LAMP2 isoform 2 (UniProt P13473)
inactive: [2] 0.032 | [3] 0.121 | [4] 0.164 | [6] -0.074 | [8] -0.06 | [9] 0 | [10] -0.19

KLF3 (UniProt P57682)
inactive: [3] 0.059 | [7] 0.117 | [8] 0.243

KMT2E (UniProt Q8IZD2)
inactive: [3] -0.239 | [4] -0.23 | [5] 0.011 | [6] 0.063 | [7] 0.054 | [8] -0.001 | [10] -0.42

KIF20B isoform 2 (UniProt Q96Q89)
inactive: [3] -0.054 | [4] -0.022 | [5] -0.051 | [6] 0.113 | [7] 0.024 | [8] 0.228 | [10] 0.073

KMT2B (UniProt Q9UMN6)
inactive: [3] 0.073 | [5] -0.034 | [7] 0.073 | [8] -0.033

KLHDC8B (UniProt Q8IXV7)
inactive: [3] -0.07 | [5] 0.028 | [7] 0.025 | [8] 0.006

LANCL3 (UniProt Q6ZV70)
inactive: [2] -0.067 | [4] -0.023 | [6] -0.035 | [7] -0.041 | [9] -0.104 | [10] 0.077

KISS1R (UniProt Q969F8)
inactive: [3] -0.154 | [8] 0.169

KMT2D (UniProt O14686)
inactive: [5] -0.02

KLHL17 (UniProt Q6TDP4)
inactive: [2] 0.124 | [4] -0.247 | [6] -0.004 | [7] 0.021 | [9] -0.082 | [10] 0.039

LAMB2 (UniProt P55268)
inactive: [5] -0.015 | [7] 0.089

KHNYN (UniProt O15037)
inactive: [2] -0.034 | [3] -0.044 | [5] -0.061 | [7] 0.012 | [8] 0.112 | [9] -0.138

KTN1 (UniProt G3V5Q0)
inactive: [2] -0.163 | [7] 0.087 | [9] 0.059
